This is an account of results in publication PMC7980224.

Amino acid sequences for entries named in this document (tags omitted).
UniProt Q9NVR2: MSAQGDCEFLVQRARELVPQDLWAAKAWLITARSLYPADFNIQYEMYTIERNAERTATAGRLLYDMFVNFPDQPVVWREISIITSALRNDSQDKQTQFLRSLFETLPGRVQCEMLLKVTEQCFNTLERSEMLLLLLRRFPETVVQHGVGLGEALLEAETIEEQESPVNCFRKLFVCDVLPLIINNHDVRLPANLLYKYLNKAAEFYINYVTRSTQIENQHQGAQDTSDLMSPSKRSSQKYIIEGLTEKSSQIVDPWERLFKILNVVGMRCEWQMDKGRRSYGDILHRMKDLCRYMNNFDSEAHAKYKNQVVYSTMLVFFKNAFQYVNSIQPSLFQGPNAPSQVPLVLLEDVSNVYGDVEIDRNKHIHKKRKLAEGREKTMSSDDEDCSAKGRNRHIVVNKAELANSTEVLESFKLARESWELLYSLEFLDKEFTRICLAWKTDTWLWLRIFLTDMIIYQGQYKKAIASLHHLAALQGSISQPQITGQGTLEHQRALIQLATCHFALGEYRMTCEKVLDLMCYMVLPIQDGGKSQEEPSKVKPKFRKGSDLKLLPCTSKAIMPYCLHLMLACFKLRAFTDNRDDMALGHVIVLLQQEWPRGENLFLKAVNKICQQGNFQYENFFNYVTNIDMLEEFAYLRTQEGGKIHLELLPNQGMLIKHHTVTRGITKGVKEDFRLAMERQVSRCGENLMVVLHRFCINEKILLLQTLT
UniProt Q6P9B9: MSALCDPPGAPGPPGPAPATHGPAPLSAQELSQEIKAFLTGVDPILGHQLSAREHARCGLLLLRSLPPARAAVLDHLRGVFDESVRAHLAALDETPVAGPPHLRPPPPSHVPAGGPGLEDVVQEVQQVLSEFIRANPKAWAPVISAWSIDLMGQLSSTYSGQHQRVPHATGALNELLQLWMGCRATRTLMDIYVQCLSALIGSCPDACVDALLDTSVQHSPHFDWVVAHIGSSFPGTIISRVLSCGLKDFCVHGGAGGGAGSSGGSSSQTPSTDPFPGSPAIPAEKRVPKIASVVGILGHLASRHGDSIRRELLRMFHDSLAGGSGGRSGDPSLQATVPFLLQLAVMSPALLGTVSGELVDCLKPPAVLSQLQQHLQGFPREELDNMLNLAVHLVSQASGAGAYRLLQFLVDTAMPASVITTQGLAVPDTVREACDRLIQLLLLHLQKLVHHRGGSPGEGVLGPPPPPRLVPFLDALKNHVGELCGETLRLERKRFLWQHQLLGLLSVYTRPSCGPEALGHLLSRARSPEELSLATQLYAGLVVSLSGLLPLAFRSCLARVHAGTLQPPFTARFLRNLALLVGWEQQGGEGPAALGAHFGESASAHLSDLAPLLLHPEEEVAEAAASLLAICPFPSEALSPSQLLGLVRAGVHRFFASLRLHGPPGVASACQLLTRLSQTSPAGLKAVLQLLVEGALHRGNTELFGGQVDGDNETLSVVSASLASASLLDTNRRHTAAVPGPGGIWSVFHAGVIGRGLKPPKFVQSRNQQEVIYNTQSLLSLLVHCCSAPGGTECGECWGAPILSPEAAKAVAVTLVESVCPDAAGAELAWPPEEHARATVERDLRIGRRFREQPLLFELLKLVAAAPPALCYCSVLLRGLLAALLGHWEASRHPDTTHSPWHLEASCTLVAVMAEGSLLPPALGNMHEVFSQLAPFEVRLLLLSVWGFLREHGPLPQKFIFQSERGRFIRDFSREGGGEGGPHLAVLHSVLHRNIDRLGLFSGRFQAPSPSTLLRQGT
UniProt Q96HW7: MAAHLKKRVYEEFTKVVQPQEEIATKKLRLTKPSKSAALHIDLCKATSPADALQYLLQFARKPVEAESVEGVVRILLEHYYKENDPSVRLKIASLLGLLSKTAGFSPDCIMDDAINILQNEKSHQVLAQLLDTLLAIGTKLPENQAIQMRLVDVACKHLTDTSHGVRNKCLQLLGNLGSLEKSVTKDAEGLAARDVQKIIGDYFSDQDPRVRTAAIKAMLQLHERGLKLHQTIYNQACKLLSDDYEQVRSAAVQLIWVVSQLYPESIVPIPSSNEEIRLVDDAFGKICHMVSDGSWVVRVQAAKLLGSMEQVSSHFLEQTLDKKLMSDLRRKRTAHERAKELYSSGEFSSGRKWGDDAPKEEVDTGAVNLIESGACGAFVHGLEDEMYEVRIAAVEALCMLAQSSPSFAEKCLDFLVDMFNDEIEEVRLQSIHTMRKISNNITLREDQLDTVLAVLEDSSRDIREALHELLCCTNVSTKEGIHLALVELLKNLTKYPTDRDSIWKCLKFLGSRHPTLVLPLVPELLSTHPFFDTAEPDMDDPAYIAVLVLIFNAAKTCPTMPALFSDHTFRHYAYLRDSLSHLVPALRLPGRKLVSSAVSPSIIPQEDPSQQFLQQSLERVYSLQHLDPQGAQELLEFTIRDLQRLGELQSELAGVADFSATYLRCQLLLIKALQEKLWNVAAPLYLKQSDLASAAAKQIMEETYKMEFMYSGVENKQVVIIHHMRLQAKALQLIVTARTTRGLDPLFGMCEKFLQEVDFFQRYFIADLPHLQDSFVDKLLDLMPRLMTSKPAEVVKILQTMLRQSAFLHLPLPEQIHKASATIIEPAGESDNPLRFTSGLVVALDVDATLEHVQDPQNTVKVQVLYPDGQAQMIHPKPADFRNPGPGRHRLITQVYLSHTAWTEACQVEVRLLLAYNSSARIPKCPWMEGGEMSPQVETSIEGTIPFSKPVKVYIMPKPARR
UniProt Q9NVM9: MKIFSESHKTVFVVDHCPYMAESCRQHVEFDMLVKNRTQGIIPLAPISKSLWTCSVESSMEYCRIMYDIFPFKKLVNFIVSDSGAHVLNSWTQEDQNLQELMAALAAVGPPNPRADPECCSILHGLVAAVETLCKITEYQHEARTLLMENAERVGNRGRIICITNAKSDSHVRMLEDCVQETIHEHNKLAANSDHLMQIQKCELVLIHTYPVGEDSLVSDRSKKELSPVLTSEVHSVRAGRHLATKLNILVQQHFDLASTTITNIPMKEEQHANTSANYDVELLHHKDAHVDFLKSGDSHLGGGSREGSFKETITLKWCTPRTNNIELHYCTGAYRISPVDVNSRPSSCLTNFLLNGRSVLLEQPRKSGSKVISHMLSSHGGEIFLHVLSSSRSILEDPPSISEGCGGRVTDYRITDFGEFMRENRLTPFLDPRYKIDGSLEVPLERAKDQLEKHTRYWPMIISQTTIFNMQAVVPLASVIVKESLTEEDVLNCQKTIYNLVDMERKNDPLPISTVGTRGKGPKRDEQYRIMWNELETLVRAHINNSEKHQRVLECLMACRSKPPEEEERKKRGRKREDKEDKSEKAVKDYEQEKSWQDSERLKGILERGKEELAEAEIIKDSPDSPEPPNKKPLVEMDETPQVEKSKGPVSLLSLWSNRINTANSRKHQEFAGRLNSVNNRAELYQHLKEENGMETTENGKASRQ
UniProt Q75QN2: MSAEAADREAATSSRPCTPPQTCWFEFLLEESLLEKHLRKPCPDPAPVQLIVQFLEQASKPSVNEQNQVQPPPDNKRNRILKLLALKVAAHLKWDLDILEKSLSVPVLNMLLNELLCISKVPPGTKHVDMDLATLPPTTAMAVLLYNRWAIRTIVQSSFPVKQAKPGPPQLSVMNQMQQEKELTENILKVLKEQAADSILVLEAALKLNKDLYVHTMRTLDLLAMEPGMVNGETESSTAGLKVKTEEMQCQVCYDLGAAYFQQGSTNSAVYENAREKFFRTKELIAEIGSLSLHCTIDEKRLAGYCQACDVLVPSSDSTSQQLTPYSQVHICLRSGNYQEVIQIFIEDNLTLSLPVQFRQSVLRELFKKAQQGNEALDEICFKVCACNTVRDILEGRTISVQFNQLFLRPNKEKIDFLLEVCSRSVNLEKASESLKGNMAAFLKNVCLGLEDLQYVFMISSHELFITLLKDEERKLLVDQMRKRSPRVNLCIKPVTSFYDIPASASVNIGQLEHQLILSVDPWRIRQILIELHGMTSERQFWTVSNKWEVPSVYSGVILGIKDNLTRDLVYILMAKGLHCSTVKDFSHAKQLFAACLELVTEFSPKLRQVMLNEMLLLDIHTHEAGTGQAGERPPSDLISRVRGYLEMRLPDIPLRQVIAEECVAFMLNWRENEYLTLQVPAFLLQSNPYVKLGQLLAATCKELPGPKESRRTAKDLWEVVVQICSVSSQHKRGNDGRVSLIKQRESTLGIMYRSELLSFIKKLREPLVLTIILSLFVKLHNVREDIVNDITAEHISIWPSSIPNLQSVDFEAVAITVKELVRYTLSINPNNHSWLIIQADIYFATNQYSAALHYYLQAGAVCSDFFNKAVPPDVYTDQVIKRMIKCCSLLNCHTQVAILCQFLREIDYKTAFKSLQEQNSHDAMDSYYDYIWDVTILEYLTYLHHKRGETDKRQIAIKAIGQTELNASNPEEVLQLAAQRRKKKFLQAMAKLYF
UniProt Q96SY0: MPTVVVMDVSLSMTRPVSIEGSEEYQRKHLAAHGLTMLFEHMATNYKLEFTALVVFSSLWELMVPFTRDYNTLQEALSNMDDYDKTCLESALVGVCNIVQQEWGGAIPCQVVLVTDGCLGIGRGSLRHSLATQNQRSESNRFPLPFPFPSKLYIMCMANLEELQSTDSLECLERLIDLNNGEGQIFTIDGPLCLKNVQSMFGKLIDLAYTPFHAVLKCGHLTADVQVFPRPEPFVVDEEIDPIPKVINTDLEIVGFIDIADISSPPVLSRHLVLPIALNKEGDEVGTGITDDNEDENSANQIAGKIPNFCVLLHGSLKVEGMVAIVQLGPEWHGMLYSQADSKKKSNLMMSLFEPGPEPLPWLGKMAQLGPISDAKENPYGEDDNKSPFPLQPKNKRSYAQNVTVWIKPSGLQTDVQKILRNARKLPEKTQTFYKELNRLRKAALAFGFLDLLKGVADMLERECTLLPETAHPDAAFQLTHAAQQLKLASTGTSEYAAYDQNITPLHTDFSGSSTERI
UniProt Q9NVH2: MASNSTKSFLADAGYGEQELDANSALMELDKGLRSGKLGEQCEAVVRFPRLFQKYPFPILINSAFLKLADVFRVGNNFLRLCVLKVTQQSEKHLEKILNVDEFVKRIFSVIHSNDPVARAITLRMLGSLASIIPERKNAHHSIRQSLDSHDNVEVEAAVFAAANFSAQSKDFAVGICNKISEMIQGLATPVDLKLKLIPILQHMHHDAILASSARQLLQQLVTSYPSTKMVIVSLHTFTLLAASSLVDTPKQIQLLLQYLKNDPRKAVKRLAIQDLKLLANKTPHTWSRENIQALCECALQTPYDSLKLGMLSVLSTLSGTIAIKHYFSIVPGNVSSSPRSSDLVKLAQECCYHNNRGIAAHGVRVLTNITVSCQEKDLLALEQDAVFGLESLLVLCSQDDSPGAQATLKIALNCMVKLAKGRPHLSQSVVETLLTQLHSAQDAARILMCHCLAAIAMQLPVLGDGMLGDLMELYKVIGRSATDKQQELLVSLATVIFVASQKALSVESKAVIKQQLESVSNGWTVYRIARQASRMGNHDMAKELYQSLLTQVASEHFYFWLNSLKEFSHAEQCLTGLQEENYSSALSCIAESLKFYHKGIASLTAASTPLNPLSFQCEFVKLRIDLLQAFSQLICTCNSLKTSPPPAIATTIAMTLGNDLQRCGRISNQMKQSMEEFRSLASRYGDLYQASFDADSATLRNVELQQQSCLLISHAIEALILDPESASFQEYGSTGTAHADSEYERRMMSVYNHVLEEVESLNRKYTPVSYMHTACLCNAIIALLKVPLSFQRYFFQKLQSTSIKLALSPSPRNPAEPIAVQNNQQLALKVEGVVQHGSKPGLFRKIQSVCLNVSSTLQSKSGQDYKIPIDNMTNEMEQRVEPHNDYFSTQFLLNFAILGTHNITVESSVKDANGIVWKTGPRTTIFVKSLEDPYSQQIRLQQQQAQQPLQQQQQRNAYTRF
UniProt Q9NV88: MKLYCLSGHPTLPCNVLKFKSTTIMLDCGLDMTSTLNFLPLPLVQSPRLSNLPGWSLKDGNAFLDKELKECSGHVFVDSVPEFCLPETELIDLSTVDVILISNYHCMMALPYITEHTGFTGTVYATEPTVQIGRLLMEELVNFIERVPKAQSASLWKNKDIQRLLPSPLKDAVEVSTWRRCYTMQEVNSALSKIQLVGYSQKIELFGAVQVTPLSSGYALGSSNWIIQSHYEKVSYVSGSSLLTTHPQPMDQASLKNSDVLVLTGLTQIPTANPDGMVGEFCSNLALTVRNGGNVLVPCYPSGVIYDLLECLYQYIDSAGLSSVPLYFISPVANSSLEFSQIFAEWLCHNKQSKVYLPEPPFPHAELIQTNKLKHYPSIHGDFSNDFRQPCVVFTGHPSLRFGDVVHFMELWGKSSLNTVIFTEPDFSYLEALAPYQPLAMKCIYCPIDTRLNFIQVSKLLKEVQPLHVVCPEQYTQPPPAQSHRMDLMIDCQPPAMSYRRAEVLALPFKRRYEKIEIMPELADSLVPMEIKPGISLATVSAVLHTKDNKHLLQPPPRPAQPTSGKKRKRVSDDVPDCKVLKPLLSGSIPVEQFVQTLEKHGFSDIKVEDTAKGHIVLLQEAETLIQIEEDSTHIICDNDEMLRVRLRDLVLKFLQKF

Results are given in words; binding and its absence hold for the method and conditions named. In cells and extracts the contact can be indirect. Here binding means that the protein was enriched with, or labelled near, the bait; the list need not be complete.

What all share (experiment): affinity purification with mass spectrometry; stable HEK293F lines with Protein A-TEV-SBP tagged baits; nuclear extract (INTS4, INTS5) or S100 fraction (INTS4, INTS10); IgG beads, TEV elution, streptavidin beads, desthiobiotin elution, 150 mM KCl, 20 mM HEPES-KOH pH 7.8; TMT quantitative mass spectrometry, enrichment against the INTS4 …
In experiment [1] the target is Protein A-TEV-SBP N-terminal tagged INTS10 (UniProt Q9NVR2).
For experiment [2], the target named is Protein A-TEV-SBP N-terminal tagged INTS5 (UniProt Q6P9B9).
Experiment [3] deals with Protein A-TEV-SBP N-terminal tagged INTS4 (UniProt Q96HW7).

“INTS13 (endogenous) (from UniProt Q9NVM9 1-706)”: the binding entry in experiment [1] is on record as “binds”.

As to “INTS8 (endogenous) (from UniProt Q75QN2 1-995)”, in experiment [2], the binding result is recorded as “binds”.

With “INTS14 (endogenous) (from UniProt Q96SY0 1-518) (other; other documents disagree on this pair)”, the binding entry in experiment [1] is listed as “binds”.

As to “INTS7 (endogenous) (from UniProt Q9NVH2 1-962)”, the binding entry in experiment [2] and in experiment [3] was “binds” each time.

In the case of “INTS9 (endogenous) (from UniProt Q9NV88 1-658)”, the binding entry in experiment [3] is on record as “binds”.
